In article PMC8405816:
These are yes or no findings as the source states them, for the method shown. In cells and extracts the contact can be indirect. Some entries that bind do so weakly or less than the wild type. For part of these data: Tags and fused reporters may be left off the sequences shown.

Protein sequences, listed by entry. Tags and fused reporters are not part of them.
UniProt P12956: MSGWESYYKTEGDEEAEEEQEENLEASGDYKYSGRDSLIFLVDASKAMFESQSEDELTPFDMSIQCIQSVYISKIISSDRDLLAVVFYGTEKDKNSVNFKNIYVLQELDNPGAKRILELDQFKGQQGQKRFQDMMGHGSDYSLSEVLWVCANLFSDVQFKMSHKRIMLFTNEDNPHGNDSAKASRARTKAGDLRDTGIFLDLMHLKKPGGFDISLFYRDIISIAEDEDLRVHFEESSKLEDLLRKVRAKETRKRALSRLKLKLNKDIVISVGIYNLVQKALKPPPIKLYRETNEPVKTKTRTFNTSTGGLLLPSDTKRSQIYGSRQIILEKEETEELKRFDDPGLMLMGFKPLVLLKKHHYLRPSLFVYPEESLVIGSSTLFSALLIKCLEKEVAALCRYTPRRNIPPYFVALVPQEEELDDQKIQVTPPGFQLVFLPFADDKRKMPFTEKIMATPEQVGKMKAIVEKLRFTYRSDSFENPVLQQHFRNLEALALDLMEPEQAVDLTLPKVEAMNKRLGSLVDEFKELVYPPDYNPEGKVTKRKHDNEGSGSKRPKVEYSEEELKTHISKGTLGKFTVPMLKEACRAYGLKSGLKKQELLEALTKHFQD
UniProt P13010: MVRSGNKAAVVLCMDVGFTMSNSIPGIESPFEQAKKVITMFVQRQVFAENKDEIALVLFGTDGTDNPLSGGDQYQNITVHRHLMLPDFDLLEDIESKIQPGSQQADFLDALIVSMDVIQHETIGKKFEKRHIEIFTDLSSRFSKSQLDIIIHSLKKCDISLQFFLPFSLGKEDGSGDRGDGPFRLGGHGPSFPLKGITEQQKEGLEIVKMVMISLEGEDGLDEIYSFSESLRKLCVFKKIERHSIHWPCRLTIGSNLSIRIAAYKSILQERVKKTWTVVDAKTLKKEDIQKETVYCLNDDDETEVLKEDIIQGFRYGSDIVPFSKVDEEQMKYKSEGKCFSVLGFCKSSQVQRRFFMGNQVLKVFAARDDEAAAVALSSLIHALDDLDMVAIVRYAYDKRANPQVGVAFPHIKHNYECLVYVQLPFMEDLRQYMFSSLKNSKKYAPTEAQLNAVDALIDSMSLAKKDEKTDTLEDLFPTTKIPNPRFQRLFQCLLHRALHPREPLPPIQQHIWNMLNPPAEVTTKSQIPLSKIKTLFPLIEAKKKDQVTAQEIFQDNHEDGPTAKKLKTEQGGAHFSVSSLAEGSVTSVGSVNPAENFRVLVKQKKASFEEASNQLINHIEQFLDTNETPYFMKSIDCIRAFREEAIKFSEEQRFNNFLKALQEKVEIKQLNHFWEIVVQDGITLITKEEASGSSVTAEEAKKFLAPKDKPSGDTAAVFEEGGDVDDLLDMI

T1: pcDNA3.1-FLAG-VAV2 (UniProt P52735)
T1 sequence: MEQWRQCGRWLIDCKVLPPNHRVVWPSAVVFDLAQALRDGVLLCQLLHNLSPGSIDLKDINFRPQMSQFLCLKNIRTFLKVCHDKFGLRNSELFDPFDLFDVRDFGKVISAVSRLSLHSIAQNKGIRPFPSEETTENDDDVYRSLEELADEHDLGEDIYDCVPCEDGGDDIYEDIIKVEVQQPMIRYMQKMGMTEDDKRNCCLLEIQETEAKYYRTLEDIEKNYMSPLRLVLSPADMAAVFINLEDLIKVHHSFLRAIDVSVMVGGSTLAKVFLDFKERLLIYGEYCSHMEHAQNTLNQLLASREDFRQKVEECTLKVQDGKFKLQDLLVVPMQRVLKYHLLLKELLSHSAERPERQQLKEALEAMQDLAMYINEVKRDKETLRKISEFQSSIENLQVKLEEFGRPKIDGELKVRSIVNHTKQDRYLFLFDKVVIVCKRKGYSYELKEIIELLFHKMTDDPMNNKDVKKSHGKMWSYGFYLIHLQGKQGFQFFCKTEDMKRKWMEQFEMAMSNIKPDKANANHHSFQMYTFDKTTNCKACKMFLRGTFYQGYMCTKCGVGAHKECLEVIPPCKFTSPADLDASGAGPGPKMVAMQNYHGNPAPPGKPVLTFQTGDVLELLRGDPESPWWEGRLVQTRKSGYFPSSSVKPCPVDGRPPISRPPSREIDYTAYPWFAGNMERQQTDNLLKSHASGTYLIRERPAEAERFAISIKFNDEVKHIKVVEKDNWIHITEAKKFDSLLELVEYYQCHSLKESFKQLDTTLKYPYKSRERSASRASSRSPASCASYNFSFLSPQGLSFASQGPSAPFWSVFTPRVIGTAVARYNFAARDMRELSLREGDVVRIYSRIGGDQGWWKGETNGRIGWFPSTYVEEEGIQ

T2: FLAG-tagged VAV2 (UniProt P52735)
T2 sequence: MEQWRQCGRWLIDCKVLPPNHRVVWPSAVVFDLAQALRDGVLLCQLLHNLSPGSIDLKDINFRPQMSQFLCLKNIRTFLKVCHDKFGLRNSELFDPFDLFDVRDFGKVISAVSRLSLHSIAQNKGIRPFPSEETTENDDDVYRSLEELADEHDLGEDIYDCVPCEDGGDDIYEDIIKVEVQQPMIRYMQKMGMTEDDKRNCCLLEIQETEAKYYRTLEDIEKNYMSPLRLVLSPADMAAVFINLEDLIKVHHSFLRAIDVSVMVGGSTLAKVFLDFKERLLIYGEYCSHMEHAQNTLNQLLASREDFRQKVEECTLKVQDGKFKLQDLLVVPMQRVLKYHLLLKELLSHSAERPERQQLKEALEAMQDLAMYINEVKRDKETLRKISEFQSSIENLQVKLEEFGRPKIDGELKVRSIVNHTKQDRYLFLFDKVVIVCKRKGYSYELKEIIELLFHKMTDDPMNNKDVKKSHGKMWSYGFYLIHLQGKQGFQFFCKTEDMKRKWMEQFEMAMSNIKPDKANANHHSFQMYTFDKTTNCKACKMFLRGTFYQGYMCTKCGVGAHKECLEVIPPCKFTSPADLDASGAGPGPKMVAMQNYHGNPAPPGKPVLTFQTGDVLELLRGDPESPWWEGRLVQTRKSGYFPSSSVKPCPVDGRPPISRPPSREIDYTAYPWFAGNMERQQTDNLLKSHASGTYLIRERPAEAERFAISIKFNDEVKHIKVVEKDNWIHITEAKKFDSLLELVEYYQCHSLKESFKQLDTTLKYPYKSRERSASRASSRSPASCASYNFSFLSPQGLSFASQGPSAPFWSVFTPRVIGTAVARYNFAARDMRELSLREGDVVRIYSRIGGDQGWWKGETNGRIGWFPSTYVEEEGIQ

T3: VAV2 (endogenous) (human (endogenous in KYSE30, KYSE150, KYSE450)) (UniProt P52735)
T3 sequence: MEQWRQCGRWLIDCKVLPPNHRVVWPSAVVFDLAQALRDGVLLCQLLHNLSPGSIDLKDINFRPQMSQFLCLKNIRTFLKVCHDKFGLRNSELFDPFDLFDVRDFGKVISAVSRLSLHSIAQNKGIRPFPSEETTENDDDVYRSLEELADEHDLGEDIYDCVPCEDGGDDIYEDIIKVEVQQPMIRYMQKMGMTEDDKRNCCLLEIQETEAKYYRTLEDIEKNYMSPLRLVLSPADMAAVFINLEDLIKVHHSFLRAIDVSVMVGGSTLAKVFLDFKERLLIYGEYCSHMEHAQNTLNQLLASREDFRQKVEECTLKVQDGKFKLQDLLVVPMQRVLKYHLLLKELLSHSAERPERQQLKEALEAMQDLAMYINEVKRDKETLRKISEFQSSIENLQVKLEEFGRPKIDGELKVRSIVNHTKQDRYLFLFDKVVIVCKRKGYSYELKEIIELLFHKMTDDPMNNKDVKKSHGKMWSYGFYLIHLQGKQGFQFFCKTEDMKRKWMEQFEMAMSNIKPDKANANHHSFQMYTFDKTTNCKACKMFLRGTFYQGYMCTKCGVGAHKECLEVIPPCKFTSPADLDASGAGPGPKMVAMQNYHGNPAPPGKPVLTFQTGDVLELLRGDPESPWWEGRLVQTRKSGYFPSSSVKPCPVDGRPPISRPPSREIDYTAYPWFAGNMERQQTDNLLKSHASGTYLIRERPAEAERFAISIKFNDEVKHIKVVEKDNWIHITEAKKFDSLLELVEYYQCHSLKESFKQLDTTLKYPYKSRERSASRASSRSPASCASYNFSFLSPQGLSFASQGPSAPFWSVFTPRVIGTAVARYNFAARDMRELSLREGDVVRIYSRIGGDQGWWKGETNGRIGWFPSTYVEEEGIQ

B1: VAV2 (stably overexpressed by lentivirus) (protein, UniProt P52735 1-878)
chain: MEQWRQCGRWLIDCKVLPPNHRVVWPSAVVFDLAQALRDGVLLCQLLHNLSPGSIDLKDINFRPQMSQFLCLKNIRTFLKVCHDKFGLRNSELFDPFDLFDVRDFGKVISAVSRLSLHSIAQNKGIRPFPSEETTENDDDVYRSLEELADEHDLGEDIYDCVPCEDGGDDIYEDIIKVEVQQPMIRYMQKMGMTEDDKRNCCLLEIQETEAKYYRTLEDIEKNYMSPLRLVLSPADMAAVFINLEDLIKVHHSFLRAIDVSVMVGGSTLAKVFLDFKERLLIYGEYCSHMEHAQNTLNQLLASREDFRQKVEECTLKVQDGKFKLQDLLVVPMQRVLKYHLLLKELLSHSAERPERQQLKEALEAMQDLAMYINEVKRDKETLRKISEFQSSIENLQVKLEEFGRPKIDGELKVRSIVNHTKQDRYLFLFDKVVIVCKRKGYSYELKEIIELLFHKMTDDPMNNKDVKKSHGKMWSYGFYLIHLQGKQGFQFFCKTEDMKRKWMEQFEMAMSNIKPDKANANHHSFQMYTFDKTTNCKACKMFLRGTFYQGYMCTKCGVGAHKECLEVIPPCKFTSPADLDASGAGPGPKMVAMQNYHGNPAPPGKPVLTFQTGDVLELLRGDPESPWWEGRLVQTRKSGYFPSSSVKPCPVDGRPPISRPPSREIDYTAYPWFAGNMERQQTDNLLKSHASGTYLIRERPAEAERFAISIKFNDEVKHIKVVEKDNWIHITEAKKFDSLLELVEYYQCHSLKESFKQLDTTLKYPYKSRERSASRASSRSPASCASYNFSFLSPQGLSFASQGPSAPFWSVFTPRVIGTAVARYNFAARDMRELSLREGDVVRIYSRIGGDQGWWKGETNGRIGWFPSTYVEEEGIQ
B2: VAV2 (endogenous) (protein, UniProt P52735 1-878)
chain: MEQWRQCGRWLIDCKVLPPNHRVVWPSAVVFDLAQALRDGVLLCQLLHNLSPGSIDLKDINFRPQMSQFLCLKNIRTFLKVCHDKFGLRNSELFDPFDLFDVRDFGKVISAVSRLSLHSIAQNKGIRPFPSEETTENDDDVYRSLEELADEHDLGEDIYDCVPCEDGGDDIYEDIIKVEVQQPMIRYMQKMGMTEDDKRNCCLLEIQETEAKYYRTLEDIEKNYMSPLRLVLSPADMAAVFINLEDLIKVHHSFLRAIDVSVMVGGSTLAKVFLDFKERLLIYGEYCSHMEHAQNTLNQLLASREDFRQKVEECTLKVQDGKFKLQDLLVVPMQRVLKYHLLLKELLSHSAERPERQQLKEALEAMQDLAMYINEVKRDKETLRKISEFQSSIENLQVKLEEFGRPKIDGELKVRSIVNHTKQDRYLFLFDKVVIVCKRKGYSYELKEIIELLFHKMTDDPMNNKDVKKSHGKMWSYGFYLIHLQGKQGFQFFCKTEDMKRKWMEQFEMAMSNIKPDKANANHHSFQMYTFDKTTNCKACKMFLRGTFYQGYMCTKCGVGAHKECLEVIPPCKFTSPADLDASGAGPGPKMVAMQNYHGNPAPPGKPVLTFQTGDVLELLRGDPESPWWEGRLVQTRKSGYFPSSSVKPCPVDGRPPISRPPSREIDYTAYPWFAGNMERQQTDNLLKSHASGTYLIRERPAEAERFAISIKFNDEVKHIKVVEKDNWIHITEAKKFDSLLELVEYYQCHSLKESFKQLDTTLKYPYKSRERSASRASSRSPASCASYNFSFLSPQGLSFASQGPSAPFWSVFTPRVIGTAVARYNFAARDMRELSLREGDVVRIYSRIGGDQGWWKGETNGRIGWFPSTYVEEEGIQ

Legend:
pcDNA3.1-FLAG-VAV2 = target: T1, pcDNA3.1-FLAG-VAV2; experiment: co-IP; KYSE150 cells co-transfected with HIS-XRCC6 or MYC-XRCC5 and various truncations of FLAG VAV2; lysates immunoprecipitated and Western blotted
FLAG-tagged VAV2 = target: T2, FLAG-tagged VAV2; experiment: co-IP; lysates of ESCC cells ectopically expressing FLAG-tagged VAV2, with or without siVAV2, immunoprecipitated with anti-FLAG or IgG, Western blot of FLAG-VAV2, Ku70 and Ku80
[1] = target: T3, VAV2 (endogenous) (human (endogenous in KYSE30, KYSE150, KYSE450)); experiment: co-IP; RIPA lysates of KYSE150 and KYSE450 cells, immunoprecipitated with antibody against VAV2, Ku70 or Ku80 on Protein G Dynabeads, IgG as control, Western blot; also anti-Ku70 IP from ESCC cells overexpressing VAV2
[2] = target: Ku70 (endogenous) (human (endogenous in KYSE30, KYSE150, KYSE450)) (UniProt P12956); experiment: as above
[3] = target: Ku80 (endogenous) (human (endogenous in KYSE30, KYSE150, KYSE450)) (UniProt P13010); experiment: as above

Molecule	binding (pcDNA3.1-FLAG-VAV2)	binding (FLAG-tagged VAV2)	binding [1]	binding [2]	other results
HIS-XRCC6 (producing Ku70) (from UniProt P12956 1-609)	binds				
Ku70 (endogenous) (from UniProt P12956 1-609)		binds	binds		
Ku80 (endogenous) (from UniProt P13010 1-732)		binds	binds		
MYC-XRCC5 (producing Ku80) (from UniProt P13010 1-732)	binds weakly				
B1				binds	
B2				binds	binding [3]: binds
